Measured values as given in patent US20100184672A1.
No constants are given. Whether binding was seen depends on the method and setting. Some results given as binding are weak or reduced against the parent protein; the word gives no strength.

Chains of the proteins cited; added tags and fusions are not shown. Lines headed by an entry give the natural chain unless they say otherwise; changes in a name come on top. Residues count along the entry.
UniProt P07359, residues 17-652: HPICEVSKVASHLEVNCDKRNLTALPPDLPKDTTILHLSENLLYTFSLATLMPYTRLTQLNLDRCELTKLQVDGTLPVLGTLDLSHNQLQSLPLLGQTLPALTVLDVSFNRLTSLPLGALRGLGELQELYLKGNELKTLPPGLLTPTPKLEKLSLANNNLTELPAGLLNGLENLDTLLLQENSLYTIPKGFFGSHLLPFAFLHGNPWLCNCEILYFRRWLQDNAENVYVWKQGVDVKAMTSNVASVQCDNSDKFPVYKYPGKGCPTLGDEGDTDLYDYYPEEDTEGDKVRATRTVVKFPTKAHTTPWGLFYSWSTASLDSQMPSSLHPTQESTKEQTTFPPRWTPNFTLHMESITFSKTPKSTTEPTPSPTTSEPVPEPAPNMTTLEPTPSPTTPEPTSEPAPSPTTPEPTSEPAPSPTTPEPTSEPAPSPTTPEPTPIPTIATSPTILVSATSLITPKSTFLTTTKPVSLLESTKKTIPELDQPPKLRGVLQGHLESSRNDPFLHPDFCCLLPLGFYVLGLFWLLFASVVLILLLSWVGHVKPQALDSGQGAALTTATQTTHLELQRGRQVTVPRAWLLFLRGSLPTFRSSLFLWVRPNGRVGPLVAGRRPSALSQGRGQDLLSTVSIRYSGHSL
UniProt P08514: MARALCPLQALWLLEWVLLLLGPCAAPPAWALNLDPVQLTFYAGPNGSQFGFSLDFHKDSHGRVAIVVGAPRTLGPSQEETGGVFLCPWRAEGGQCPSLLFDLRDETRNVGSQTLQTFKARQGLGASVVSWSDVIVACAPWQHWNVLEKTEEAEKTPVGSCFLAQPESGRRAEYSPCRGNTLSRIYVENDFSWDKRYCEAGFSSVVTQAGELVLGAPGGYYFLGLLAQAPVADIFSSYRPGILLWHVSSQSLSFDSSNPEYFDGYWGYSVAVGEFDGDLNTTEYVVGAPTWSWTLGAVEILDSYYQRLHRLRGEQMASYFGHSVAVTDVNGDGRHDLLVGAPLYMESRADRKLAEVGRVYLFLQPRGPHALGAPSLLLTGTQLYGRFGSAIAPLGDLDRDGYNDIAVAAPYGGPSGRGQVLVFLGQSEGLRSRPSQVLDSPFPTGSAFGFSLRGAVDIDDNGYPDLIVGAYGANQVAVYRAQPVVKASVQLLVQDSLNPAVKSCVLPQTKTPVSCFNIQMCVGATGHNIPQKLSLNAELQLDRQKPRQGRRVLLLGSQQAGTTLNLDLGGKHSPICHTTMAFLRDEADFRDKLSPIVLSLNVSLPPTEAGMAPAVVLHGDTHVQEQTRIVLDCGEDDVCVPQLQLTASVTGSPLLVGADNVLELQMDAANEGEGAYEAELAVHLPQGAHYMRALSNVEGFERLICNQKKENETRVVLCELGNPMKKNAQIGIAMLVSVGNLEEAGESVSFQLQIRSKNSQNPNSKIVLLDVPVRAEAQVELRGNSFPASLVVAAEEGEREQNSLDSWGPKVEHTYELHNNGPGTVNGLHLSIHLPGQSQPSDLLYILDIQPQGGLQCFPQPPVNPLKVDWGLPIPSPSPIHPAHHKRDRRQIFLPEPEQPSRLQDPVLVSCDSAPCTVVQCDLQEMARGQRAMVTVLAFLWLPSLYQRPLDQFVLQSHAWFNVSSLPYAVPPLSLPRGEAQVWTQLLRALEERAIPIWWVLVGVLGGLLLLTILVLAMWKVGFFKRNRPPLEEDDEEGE
UniProt P05106: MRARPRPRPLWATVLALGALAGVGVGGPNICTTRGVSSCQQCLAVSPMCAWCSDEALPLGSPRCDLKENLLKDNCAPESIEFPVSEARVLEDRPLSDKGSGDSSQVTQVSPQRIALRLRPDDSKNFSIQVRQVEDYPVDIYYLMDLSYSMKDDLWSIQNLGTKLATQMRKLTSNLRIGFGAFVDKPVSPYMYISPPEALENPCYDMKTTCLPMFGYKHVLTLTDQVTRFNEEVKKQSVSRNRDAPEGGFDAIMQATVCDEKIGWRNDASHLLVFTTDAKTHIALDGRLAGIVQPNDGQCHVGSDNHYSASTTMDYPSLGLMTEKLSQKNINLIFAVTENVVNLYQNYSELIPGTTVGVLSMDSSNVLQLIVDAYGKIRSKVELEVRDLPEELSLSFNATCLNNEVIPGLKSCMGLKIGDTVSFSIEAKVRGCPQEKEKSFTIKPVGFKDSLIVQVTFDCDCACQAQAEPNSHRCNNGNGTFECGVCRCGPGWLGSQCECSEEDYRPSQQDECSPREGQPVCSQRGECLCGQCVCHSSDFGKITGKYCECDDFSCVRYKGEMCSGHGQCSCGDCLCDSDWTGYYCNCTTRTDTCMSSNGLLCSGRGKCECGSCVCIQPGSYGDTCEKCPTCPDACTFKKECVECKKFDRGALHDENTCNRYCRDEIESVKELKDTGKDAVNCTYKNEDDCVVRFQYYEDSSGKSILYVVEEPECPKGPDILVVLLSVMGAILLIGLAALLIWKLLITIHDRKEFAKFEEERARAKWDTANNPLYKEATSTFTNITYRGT
UniProt P04070, residues 43-461: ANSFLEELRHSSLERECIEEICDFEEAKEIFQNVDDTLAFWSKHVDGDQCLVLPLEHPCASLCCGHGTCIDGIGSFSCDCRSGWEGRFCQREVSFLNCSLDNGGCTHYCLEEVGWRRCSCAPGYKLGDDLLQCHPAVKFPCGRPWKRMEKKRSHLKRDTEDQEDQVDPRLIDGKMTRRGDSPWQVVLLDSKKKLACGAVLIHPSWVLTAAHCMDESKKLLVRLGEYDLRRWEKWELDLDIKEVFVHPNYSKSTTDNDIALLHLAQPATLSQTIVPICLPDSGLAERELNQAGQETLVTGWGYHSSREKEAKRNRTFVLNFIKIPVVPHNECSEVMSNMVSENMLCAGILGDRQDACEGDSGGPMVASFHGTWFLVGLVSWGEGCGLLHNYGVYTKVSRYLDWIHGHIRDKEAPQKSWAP
UniProt P02671: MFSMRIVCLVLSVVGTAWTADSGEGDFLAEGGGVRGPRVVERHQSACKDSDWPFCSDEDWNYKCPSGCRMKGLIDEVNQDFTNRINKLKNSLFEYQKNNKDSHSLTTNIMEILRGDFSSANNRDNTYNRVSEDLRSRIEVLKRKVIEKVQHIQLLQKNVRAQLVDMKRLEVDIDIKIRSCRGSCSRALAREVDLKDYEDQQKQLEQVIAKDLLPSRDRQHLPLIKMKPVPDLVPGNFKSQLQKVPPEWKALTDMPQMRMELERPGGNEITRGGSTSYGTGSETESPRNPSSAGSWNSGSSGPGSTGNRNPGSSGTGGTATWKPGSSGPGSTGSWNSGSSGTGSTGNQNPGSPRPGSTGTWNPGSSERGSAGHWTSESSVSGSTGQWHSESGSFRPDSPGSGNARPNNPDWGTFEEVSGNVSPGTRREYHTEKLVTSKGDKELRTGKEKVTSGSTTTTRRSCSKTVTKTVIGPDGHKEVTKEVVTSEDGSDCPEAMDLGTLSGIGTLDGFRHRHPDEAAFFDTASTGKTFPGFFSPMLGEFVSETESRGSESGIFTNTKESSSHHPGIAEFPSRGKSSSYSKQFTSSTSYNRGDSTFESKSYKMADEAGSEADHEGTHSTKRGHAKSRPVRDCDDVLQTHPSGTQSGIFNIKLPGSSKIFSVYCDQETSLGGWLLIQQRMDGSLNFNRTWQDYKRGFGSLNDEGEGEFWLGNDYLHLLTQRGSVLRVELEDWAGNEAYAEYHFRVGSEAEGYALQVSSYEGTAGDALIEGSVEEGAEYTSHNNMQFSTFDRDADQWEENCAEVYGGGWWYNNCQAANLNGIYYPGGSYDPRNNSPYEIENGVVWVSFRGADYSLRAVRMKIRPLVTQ

Legend:
[1] = molecular target: GPIb on human platelets (human) (UniProt P07359); assay: PC-coated 10 um polystyrene beads perfused over immobilized platelets in a parallel-plate flow chamber, shear rate 150 s^-1, 5 min, images
[2] = molecular target: GPIb on human platelets (human) (UniProt P07359); assay: platelet adhesion to immobilized ligand under flow, reconstituted blood at shear rate 300 s^-1 for 3 min, DIC images; GPIb dependence shown with anti-GPIb mAb 6D1 (10 ug/ml)
[3] = molecular target: GPIb on human platelets (human) (UniProt P07359); assay: PC-coated 10 um polystyrene beads perfused over immobilized platelets in a parallel-plate flow chamber, shear rate 150 s^-1, 5 min, adherent beads counted; with or without anti-GPIb mAb 6D1
[4] = molecular target: T1, integrin αIIbβ3 on human platelets (human) (UniProt P08514+P05106); assay: static adhesion of purified human platelets to immobilized ligand, 45 min at 37 C, DIC images; alphaIIbbeta3 dependence shown with anti-alphaIIbbeta3 (eptifibatide)
[5] = molecular target: T1, integrin αIIbβ3 on human platelets (human); assay: platelet adhesion to immobilized ligand under flow, reconstituted blood at shear rate 300 s^-1 for 3 min, DIC images; alphaIIbbeta3 dependence shown with eptifibatide (20 ug/ml)

Substance | binding [1] | binding [2] | binding [3] | binding [4] | binding [5]
Protein C (PC), human plasma-derived zymogen (from UniProt P04070 43-461) (enzyme) | binds | binds | binds | – | –
fibrinogen (from UniProt P02671 20-629; P02675 31-491; P02679 27-437) (ligand) | – | – | – | binds | binds
